Test results published in publication PMC4560817.
These are yes or no findings as the source states them, for the method shown. In cells and extracts the contact can be indirect. Some results given as binding are weak or reduced against the parent protein; the word gives no strength.

By UniProt entry, the sequences of proteins in these tests, tags left out.
UniProt P35222: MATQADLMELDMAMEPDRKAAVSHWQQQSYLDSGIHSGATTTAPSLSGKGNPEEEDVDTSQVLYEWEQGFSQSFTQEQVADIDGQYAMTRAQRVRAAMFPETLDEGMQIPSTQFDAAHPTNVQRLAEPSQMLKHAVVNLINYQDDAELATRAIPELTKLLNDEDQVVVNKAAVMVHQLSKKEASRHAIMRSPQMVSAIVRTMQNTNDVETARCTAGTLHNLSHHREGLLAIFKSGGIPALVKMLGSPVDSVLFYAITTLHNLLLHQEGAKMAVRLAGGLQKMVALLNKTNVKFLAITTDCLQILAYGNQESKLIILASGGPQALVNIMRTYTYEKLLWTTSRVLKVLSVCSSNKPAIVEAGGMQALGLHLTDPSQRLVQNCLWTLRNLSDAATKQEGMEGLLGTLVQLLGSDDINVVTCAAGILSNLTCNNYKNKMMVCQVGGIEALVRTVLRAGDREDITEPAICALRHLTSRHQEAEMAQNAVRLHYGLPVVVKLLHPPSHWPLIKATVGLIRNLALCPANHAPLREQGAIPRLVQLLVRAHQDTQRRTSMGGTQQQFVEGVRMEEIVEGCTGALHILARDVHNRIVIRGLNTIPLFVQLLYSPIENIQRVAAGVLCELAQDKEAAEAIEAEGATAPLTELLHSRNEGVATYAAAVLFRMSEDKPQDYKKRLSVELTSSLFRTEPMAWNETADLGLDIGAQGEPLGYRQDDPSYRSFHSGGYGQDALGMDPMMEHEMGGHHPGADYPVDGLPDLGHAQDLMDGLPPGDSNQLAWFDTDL
UniProt Q02248: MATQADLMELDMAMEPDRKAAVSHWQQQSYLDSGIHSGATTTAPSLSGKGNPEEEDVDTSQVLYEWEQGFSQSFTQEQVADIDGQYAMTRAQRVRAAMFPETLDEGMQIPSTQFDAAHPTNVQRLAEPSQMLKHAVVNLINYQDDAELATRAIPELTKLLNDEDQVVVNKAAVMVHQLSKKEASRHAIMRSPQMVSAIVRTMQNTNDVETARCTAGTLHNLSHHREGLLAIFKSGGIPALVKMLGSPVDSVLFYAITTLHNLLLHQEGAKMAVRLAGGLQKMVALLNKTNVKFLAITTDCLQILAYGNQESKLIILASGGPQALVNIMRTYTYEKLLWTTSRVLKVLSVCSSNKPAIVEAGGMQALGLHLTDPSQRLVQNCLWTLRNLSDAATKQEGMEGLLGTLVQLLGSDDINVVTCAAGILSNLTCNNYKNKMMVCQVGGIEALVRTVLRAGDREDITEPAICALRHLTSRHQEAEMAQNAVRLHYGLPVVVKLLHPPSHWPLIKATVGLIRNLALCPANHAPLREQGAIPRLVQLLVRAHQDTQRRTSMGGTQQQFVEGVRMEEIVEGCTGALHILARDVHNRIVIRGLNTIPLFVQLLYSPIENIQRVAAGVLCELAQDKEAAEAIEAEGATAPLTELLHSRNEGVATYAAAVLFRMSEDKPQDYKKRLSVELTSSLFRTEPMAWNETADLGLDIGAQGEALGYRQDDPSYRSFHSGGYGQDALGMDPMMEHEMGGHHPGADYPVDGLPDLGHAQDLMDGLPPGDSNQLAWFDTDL

Assays:
[1] = molecular target: caveolin-1 (CAV1) (human (endogenous in Rosi, HCT116, WM852, WM793, Hs944T)) (UniProt Q03135); experiment: co-IP; Hs944T cells transiently transfected with GFP or PTEN; CAV1-BCAT immunocomplex, western blot
[2] = molecular target: caveolin-1 (CAV1) (human (endogenous in Rosi, HCT116, WM852, WM793, Hs944T)) (UniProt Q03135); experiment: co-IP; endogenous proteins; extracts of Rosi and HCT116 cells (also WM852 and WM793, IP with CAV1) in 10 mM Tris pH 8, 150 mM NaCl, 1% Triton X-100, 60 mM octyl β-D-glucopyranoside; IP with anti-β-catenin, anti-CAV1, anti-PTEN or control IgG, protein G sepharose, 4 °C overnight; western blot
[3] = molecular target: glutathione S-transferase–β-catenin fusion protein (UniProt P35222); experiment: pull-down; 20 μl β-catenin–GST beads with 500 μg whole-cell lysate of Hs944T cells transfected with GFP or PTEN, in PBS with protease inhibitors, 3 h at 4 °C; washed with 10 mM Tris pH 8, 150 mM NaCl, 1% Triton X-100, octyl β-D-glucopyranoside; immunoblot; only the target purified
[4] = molecular target: β-catenin (human (endogenous in Rosi, HCT116, Hs944T)) (UniProt P35222); experiment: co-IP; endogenous proteins; extracts of Rosi and HCT116 cells (also WM852 and WM793, IP with CAV1) in 10 mM Tris pH 8, 150 mM NaCl, 1% Triton X-100, 60 mM octyl β-D-glucopyranoside; IP with anti-β-catenin, anti-CAV1, anti-PTEN or control IgG, protein G sepharose, 4 °C overnight; western blot
[5] = molecular target: T1, caveolin-1 (CAV1), mouse (mouse (endogenous in melanoma tumours)) (UniProt P49817); experiment: co-IP; lysates of NRAS and NRAS-ΔPTEN mouse tumours, 400 μg total protein; IP with anti-CAV1 antibody; western blot with anti-β-catenin and anti-CAV1
T1 sequence: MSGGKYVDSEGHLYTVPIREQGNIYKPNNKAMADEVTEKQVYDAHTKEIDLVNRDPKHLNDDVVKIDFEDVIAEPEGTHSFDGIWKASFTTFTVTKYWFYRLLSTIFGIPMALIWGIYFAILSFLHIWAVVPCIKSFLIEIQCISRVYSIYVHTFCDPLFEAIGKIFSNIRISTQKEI

Substance: β-catenin (from UniProt P35222 1-781)
- binding [1]: binds
- binding [2]: binds

Substance: caveolin-1 (CAV1) (from UniProt Q03135 1-178)
- binding [3]: binds
- binding [4]: binds

Substance: β-catenin, mouse (from UniProt Q02248 1-781)
- binding [5]: binds
